PubChem BioAssay AID2685 (National Center for Advancing Translational Sciences (NCATS), 2010)
This is one part of the list. The main result of the screen is listed elsewhere. These columns were measured beside it and carry no call. Most of these compounds were active or inconclusive in the main read-out, so they are no random draw. The note in brackets gives the kind of curve behind each potency; many fits are weak.

Test: qHTS Assay for Lipid Storage Modulators in Drosophila S3 Cells;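 as to cell number change: cells counted by Cell Tracker Red CMTPX staining in the red channel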
Details: BODIPY lipid droplet fluorescence, 18-24 h; for cell number change: measured here: cell count max response, cells fed with added oleic acid
In short: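 Drosophila S3 cells got compounds at several concentrations plus oleic acid (400 uM solution). Laser-scanning cytometry with 488 nm excitation read lipid droplets at 500-530 nm and cells at 575-640 nm. Percent activity was relative to 20 uM Triacsin C.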

[1] = measured here: cell number channel AC50, cells fed with added oleic acid
[2] = measured here: lipid fluorescence (Fed channel) AC50, cells fed with added oleic acid

Row | Structure (SMILES) | cell number change [%] | AC50 [1] | AC50 [2]
1 | CC(C)OCCCNC(=O)c1c(N)n(Cc2cccs2)c2nc3ccccc3nc12 | -74.3 | 25.9 µM [falling, single point] | 29.1 µM [falling, single point]
2 | CC(=O)C1C2c3ccccc3OC1(C)N=c1s/c(=C/c3cnn(C)c3)c(=O)n12 (configuration not stated) | 1.7 | – | 18.4 µM [rising, single point]
3 | COc1ccc(C2=NS(=O)(=O)N(C)C(C(=O)N3CCC4(CC3)OCCO4)=C2)cc1OC | -5.37 | – | 2.91 µM [falling, partial curve]
4 | CNS(=O)(=O)c1ccc(N=Cc2c(O)n(-c3cccc(C)c3)c(=O)[nH]c2=O)cc1 | -12.7 | – | 3.66 µM [falling, full curve]
5 | COc1cc2c(cc1O)CC1c3c(cc(O)c(OC)c3-2)CCN1C (configuration not stated) | 23.9 | – | 13 µM [rising, single point]
6 | CCC(NC(=O)OC(C)(C)C)C(=O)Oc1cc(C)cc2oc(=O)c3c(c12)CCC3 (configuration not stated) | 9.35 | – | 23.1 µM [rising, single point]
7 | CC12CCC3C(CC=C4CC(O)CCC43C)C1C/C(=C\c1ccccc1F)C2=O (configuration not stated) | -25.2 | – | 18.4 µM [falling, single point]
8 | CN1CCN(Cc2ccc(Br)s2)CC1 | 3.59 | – | –
9 | CC(=NCCCN1CCOCC1)c1c(O)[nH]c(=O)[nH]c1=O | -18.6 | – | 0.058 µM [falling, full curve, poor fit]
10 | COC(=O)C1=C(c2ccc(F)cc2F)C[C@@H]2CC[C@H]1N2C(=O)N1CCOCC1 | -5.16 | – | 7.31 µM [rising, single point]
11 | COCCNCCOc1ccc(C(C)(C)c2ccccc2)cc1 | -66.7 | 1.64 µM [falling, full curve] | –
12 | O=P(c1ccccc1)(c1ccccc1)N1CCCCC1 | -4.58 | – | 29.1 µM [falling, single point]
13 | COC(=O)C1=C(c2ccc(-c3ccccc3)c(F)c2)C[C@@H]2CC[C@H]1N2C(=O)N1CCC(O)CC1 | 12 | – | 29.1 µM [falling, single point]
14 | COc1ccc(CCNCc2ccc(F)cc2)cc1OC | 45.1 | 25.9 µM [rising, single point] | –
15 | COc1cccc(-n2c(CN3CCOCC3)nc3ccc([N+](=O)[O-])cc3c2=O)c1 | 17.1 | – | 3.66 µM [rising, partial curve]
16 | CCC(C)NC(=O)c1c(N)n(CC2CCCO2)c2nc3ccccc3nc12 (configuration not stated) | -50.1 | 20.6 µM [falling, single point] | 29.1 µM [falling, single point]
17 | O=C(c1ccccc1)c1ccc(N=Nc2c(O)[nH]c(=O)[nH]c2=O)cc1 | – | 1.3 µM [rising, full curve, poor fit] | –
18 | COC(=O)C1=C(c2cccc(C#N)c2)C[C@@H]2CC[C@H]1N2C(=O)NC1Cc2ccccc2C1 | -2.64 | 2.06 µM [falling, partial curve, poor fit] | 2.06 µM [falling, partial curve]

Row | Structure (SMILES) | cell number change [%] | AC50 [1] | AC50 [2]
19 | Cc1nc2ncnn2c(C)c1CCC(=O)N1CCC2(CC1)OCCO2 | – | 0.259 µM [falling, partial curve, poor fit] | 0.231 µM [falling, full curve, poor fit]
20 | COc1ccc(C(CNC(=O)CCc2ccsc2)N(C)C)cc1 (configuration not stated) | -18.4 | – | –
21 | CC(=O)N1CCN(CCN=Cc2c(O)n(-c3ccc(F)cc3)c(=S)[nH]c2=O)CC1 | -29.2 | 0.326 µM [falling, full curve, poor fit] | 4.61 µM [falling, full curve, poor fit]
22 | CC1(C)N=C(c2ccccc2)[C@@H]2C(c3ccc([N+](=O)[O-])cc3)N21 (some centres not stated) | 19.6 | 6.51 µM [rising, partial curve, poor fit] | –
23 | Cn1cc(C(=O)OCC(=O)N2CCCCC2)c2ccccc21 | -6.83 | – | 2.59 µM [rising, partial curve, poor fit]
24 | NC(CC(=O)O)C1CCCCC1 (configuration not stated) | -14 | – | 0.00411 µM [falling, full curve, poor fit]
25 | COP(=O)(NC(=O)C(Cl)(Cl)Cl)OC | 13.6 | – | 4.61 µM [falling, single point]
26 | CCN1C[C@]2(CO)CC[C@H](OC)[C@@]34C2[C@H](OC)[C@@](O)(C13)[C@@]1(O)C[C@H](OC)[C@H]2C[C@@H]4[C@@H]1[C@H]2OC | 30.6 | 0.259 µM [rising, full curve, poor fit] | –
27 | COc1ccc(OC)c(NP(=O)(Oc2ccccc2)Oc2ccccc2)c1 | 16.3 | – | –
28 | COC(=O)C1=C(c2c(C)noc2C)C[C@@H]2CC[C@H]1N2C(=O)N1CCc2cc(OC)c(OC)cc2C1 | 7.06 | 0.651 µM [falling, full curve] | 0.146 µM [rising, full curve]
29 | CCCCOC(=O)COc1cc(C)cc2oc(=O)c3c(c12)CCC3 | 36.5 | 29.1 µM [rising, single point] | 0.206 µM [falling, full curve]
30 | COc1ccc(-c2nc3ccccc3c(=O)n2-c2nccs2)cc1 | – | – | 1.64 µM [falling, full curve]
31 | Cc1cccc(OP(=O)(NCc2ccccc2)Oc2cccc(C)c2)c1 | -16.8 | – | 13 µM [falling, single point]
32 | COc1ccc(N2C(=O)NC(=O)/C(=C\c3ccc([N+](=O)[O-])s3)C2=O)cc1 | -13.7 | – | 16.4 µM [falling, single point]
33 | O=c1c2ccccc2nc(-c2ccccc2)n1-c1ccccc1O | -8.84 | – | –
34 | COc1ccc(CCNC(C)CCc2ccc(OC)cc2)cc1 (configuration not stated) | -28.6 | 4.11 µM [falling, full curve, poor fit] | 4.61 µM [rising, single point]
35 | O=C(c1ccccc1F)c1cn(Cc2ccc(F)cc2)c2ccccc12 | 67.6 | 32.6 µM [rising, single point] | 29.1 µM [rising, single point]

An excerpt of these results, tab-delimited.
Row	Structure (SMILES)	cell number change [%]	AC50 [1]	AC50 [2]
9	CC(=NCCCN1CCOCC1)c1c(O)[nH]c(=O)[nH]c1=O	-18.6	–	0.058 µM [falling, full curve, poor fit]
31	Cc1cccc(OP(=O)(NCc2ccccc2)Oc2cccc(C)c2)c1	-16.8	–	13 µM [falling, single point]
